# Source: patent publication US4435417A, “Antiinflammatory 3H-naphtho[1,2-d]imidazoles” (Gruppo Lepetit S.p.A., priority 1982, dated 1984)
# The name of at least one read-out is uncertain.
# Tested on: carrageenin-induced edema in the rat paw
# Test: Carrageenin-induced edema of the rat paw (Winter et al.)
# Type: in vivo
# Conditions: 100 mg/kg os
smiles,measurement,value
"COc1ccc(-c2nc3c4ccccc4ccc3n2C)cc1 [Example 3, 2-(4-methoxyphenyl)-3-methyl-3H-naphtho[1,2-d]imidazole]",Percent inhibition of the carrageenin-induced edema,53%
